In assay [1] the target is Rhesus monkey TNFα (R&D Systems, Cat. No. 1070-RM-025/CF) (Rhesus monkey (Macaca mulatta)) (UniProt P48094). Nature of the assay: L929 assay (SPR nd for this scFv).
The target of assay [2] is recombinant Cynomolgus monkey TNFα (Sino Biological, Cat. No. 90018-CNAE) (Cynomolgus monkey (Macaca fascicularis)) (UniProt P79337). Put plainly: L929 assay (SPR nd for this scFv).

Amino acid sequences for entries named in this document (tags omitted). Residues count along the entry.
UniProt P48094, residues 77-233: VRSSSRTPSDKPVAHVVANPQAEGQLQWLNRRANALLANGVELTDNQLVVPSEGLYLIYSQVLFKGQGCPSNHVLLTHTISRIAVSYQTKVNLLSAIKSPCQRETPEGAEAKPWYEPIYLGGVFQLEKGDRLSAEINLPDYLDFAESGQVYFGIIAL
UniProt P79337, residues 77-233: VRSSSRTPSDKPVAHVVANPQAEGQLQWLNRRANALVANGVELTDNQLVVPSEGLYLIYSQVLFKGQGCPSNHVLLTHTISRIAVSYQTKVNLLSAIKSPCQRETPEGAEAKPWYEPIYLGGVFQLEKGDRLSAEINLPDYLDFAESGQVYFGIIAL

These are yes or no findings as the source states them, for the method shown. Some results given as binding are weak or reduced against the parent protein; the word gives no strength.

Binding data for one molecule are collected here from patent publication US12209122.

B1: humanized scFv 16-22-H05-sc04 (CDR grafted light chain, structural grafted heavy chain, CDR/STR) (scFv)
scFv: MDIQMTQSPSSLSASVGDRVTITCQASQSIFSGLAWYQQKPGKAPKLLIYGASKLASGVPSRFSGSGSGTEFTLTISGLQPADFATYYCQSYYYSSSSSDGSYAFGGGTKLTVLGGGGGSGGGGSGGGGSGGGGSEVQLVESGGGLVQPGGSLRLSCKASGIDFNNYGIGWVRQAPGKGLEWITYIYPGFAITNFANSVKGRFTISSDNSKNTVYLQMNSLRAEDTAVYYCARDPVYATSSGYFDLWGQGTLVTVSS
Consider B1, for which the binding entry in assay [1] and in assay [2] was “binds” each time.
